Test results: PMC9697873, “Construction and Evaluation of a Novel Organic Anion Transporter 1/3 CRISPR/Cas9 Double-Knockout Rat Model” (Pharmaceutics, 2022)

Settings: KO vs WT rats, 20 mg/kg oral, at 2, 4, 6, 8, 10, 12 h

## NS(=O)(=O)c1cc(C(=O)O)c(NCc2ccco2)cc1Cl [Furosemide, furosemide]
  urine furosemide excretion, KO compared with WT rats: markedly decreased
